No constants are given. Whether binding was seen depends on the method and setting. Binding seen in cells or lysates may run through a third protein. Some results given as binding are weak or reduced against the parent protein; the word gives no strength.
What was measured:
[1] = molecular target: FLAG-Rab40c (transfected in 293T cells) (human) (UniProt Q96S21); experiment: co-IP
[2] = molecular target: endogenous Rab40c (293T cells) (human (endogenous in 293T)) (UniProt Q96S21); experiment: co-IP

Sequences of proteins named here, by UniProt entry; tags and fusion partners are left off.
UniProt Q96S21: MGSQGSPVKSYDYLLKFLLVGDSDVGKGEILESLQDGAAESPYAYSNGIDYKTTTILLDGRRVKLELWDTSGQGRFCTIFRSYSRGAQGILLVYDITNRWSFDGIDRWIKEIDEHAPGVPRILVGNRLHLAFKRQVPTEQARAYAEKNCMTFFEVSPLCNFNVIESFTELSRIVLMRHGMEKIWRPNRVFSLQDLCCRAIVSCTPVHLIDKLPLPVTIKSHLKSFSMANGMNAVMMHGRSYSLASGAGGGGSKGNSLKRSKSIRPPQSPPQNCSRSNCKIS

binding [1]	binding [2]	Binder
binds		ANKRD52 (endogenous, 293T) (protein, UniProt Q8NB46 1-1076) MGILSITDQPPLVQAIFSRDVEEVRSLLSQKENINVLDQERRTPLHAAAYVGDVPILQLLLMSGANVNAKDTLWLTPLHRAAASRNEKVLGLLLAHSADVNARDKLWQTPLHVAAANRATKCAEALAPLLSSLNVADRSGRSALHHAVHSGHLETVNLLLNKGASLNVCDKKERQPLHWAAFLGHLEVLKLLVARGADLGCKDRKGYGLLHTAAASGQIEVVKYLLRMGAEIDEPNAFGNTALHIACYLGQDAVAIELVNAGANVNQPNDKGFTPLHVAAVSTNGALCLELLVNNGADVNYQSKEGKSPLHMAAIHGRFTRSQILIQNGSEIDCADKFGNTPLHVAARYGHELLISTLMTNGADTARRGIHDMFPLHLAVLFGFSDCCRKLLSSGQLYSIVSSLSNEHVLSAGFDINTPDNLGRTCLHAAASGGNVECLNLLLSSGADLRRRDKFGRTPLHYAAANGSYQCAVTLVTAGAGVNEADCKGCSPLHYAAASDTYRRAEPHTPSSHDAEEDEPLKESRRKEAFFCLEFLLDNGADPSLRDRQGYTAVHYAAAYGNRQNLELLLEMSFNCLEDVESTIPVSPLHLAAYNGHCEALKTLAETLVNLDVRDHKGRTALFLATERGSTECVEVLTAHGASALIKERKRKWTPLHAAAASGHTDSLHLLIDSGERADITDVMDAYGQTPLMLAIMNGHVDCVHLLLEKGSTADAADLRGRTALHRGAVTGCEDCLAALLDHDAFVLCRDFKGRTPIHLASACGHTAVLRTLLQAALSTDPLDAGVDYSGYSPMHWASYTGHEDCLELLLEHSPFSYLEGNPFTPLHCAVINNQDSTTEMLLGALGAKIVNSRDAKGRTPLHAAAFADNVSGLRMLLQHQAEVNATDHTGRTALMTAAENGQTAAVEFLLYRGKADLTVLDENKNTALHLACSKGHEKCALMILAETQDLGLINATNSALQMPLHIAARNGLASVVQALLSHGATVLAVDEEGHTPALACAPNKDVADCLALILSTMKPFPPKDAVSPFSFSLLKNCSIAAAKTVGGCGALPHGASCPYSQERPGAIGLDGCYSE
binds		ANKRD28 (endogenous, 293T) (protein, UniProt O15084 1-1053) MAFLKLRDQPSLVQAIFNGDPDEVRALIFKKEDVNFQDNEKRTPLHAAAYLGDAEIIELLILSGARVNAKDSKWLTPLHRAVASCSEEAVQVLLKHSADVNARDKNWQTPLHIAAANKAVKCAEALVPLLSNVNVSDRAGRTALHHAAFSGHGEMVKLLLSRGANINAFDKKDRRAIHWAAYMGHIEVVKLLVSHGAEVTCKDKKSYTPLHAAASSGMISVVKYLLDLGVDMNEPNAYGNTPLHVACYNGQDVVVNELIDCGAIVNQKNEKGFTPLHFAAASTHGALCLELLVGNGADVNMKSKDGKTPLHMTALHGRFSRSQTIIQSGAVIDCEDKNGNTPLHIAARYGHELLINTLITSGADTAKRGIHGMFPLHLAALSGFSDCCRKLLSSGFDIDTPDDFGRTCLHAAAAGGNLECLNLLLNTGADFNKKDKFGRSPLHYAAANCNYQCLFALVGSGASVNDLDERGCTPLHYAATSDTDGKCLEYLLRNDANPGIRDKQGYNAVHYSAAYGHRLCLQLIASETPLDVLMETSGTDMLSDSDNRATISPLHLAAYHGHHQALEVLVQSLLDLDVRNSSGRTPLDLAAFKGHVECVDVLINQGASILVKDYILKRTPIHAAATNGHSECLRLLIGNAEPQNAVDIQDGNGQTPLMLSVLNGHTDCVYSLLNKGANVDAKDKWGRTALHRGAVTGHEECVDALLQHGAKCLLRDSRGRTPIHLSAACGHIGVLGALLQSAASMDANPATADNHGYTALHWACYNGHETCVELLLEQEVFQKTEGNAFSPLHCAVINDNEGAAEMLIDTLGASIVNATDSKGRTPLHAAAFTDHVECLQLLLSHNAQVNSVDSTGKTPLMMAAENGQTNTVEMLVSSASAELTLQDNSKNTALHLACSKGHETSALLILEKITDRNLINATNAALQTPLHVAARNGLTMVVQELLGKGASVLAVDENGYTPALACAPNKDVADCLALILATMMPVSSSSPLSSLTFNAINRYTNTSKTVSFEALPIMRNEPSSYCSFNNIGGEQEYLYTDVDELNDSDSETY
binds	binds	PP6R1 (endogenous, 293T) (protein, UniProt Q9UPN7 1-881) MFWKFDLHTSSHLDTLLEREDLSLPELLDEEDVLQECKVVNRKLLDFLLQPPHLQAMVAWVTQEPPDSGEERLRYKYPSVACEILTSDVPQINDALGADESLLNRLYGFLQSTGSLNPLLASFFSKVMGILINRKTDQLVSFLRKKDDFVDLLLQHIGTSAIMDLLLRLLTCVERPQLRQDVVNWLNEEKIVQRLIEQIHPSKDENQHSNASQSLCDIIRLSREQMIQVQDSPEPDQLLATLEKQETIEQLLSNMFEGEQSQSVIVSGIQVLLTLLEPRRPRSESVTVNSFFSSVDGQLELLAQGALESTVSSVGALHALRPRLSCFHQLLLEPPKLEPLQMTWGMLAPPLGNTRLHVVKLLASALSANDAALTHELLALDVPNTMLDLFFHYVFNNFLHAQVEGCVSTMLSLGPPPDSSPETPIQNPVVKHLLQQCRLVERILTSWEENDRVQCAGGPRKGYMGHLTRVAGALVQNTEKGPNAEQLRQLLKELPSEQQEQWEAFVSGPLAETNKKNMVDLVNTHHLHSSSDDEDDRLKEFNFPEEAVLQQAFMDFQMQRMTSAFIDHFGFNDEEFGEQEESVNAPFDKTANITFSLNADDENPNANLLEICYKDRIQQFDDDEEEEDEEEAQGSGESDGEDGAWQGSQLARGARLGQPPGVRSGGSTDSEDEEEEDEEEEEDEEGIGCAARGGATPLSYPSPGPQPPGPSWTATFDPVPTDAPTSPRVSGEEELHTGPPAPQGPLSVPQGLPTQSLASPPARDALQLRSQDPTPPSAPQEATEGSKVTEPSAPCQALVSIGDLQATFHGIRSAPSSSDSATRDPSTSVPASGAHQPPQTTEGEKSPEPLGLPQSQSAQALTPPPIPNGSAPEGPASPGSQ
